This note sets out measurements from PMC6933005.

By UniProt entry, the sequences of proteins in these tests, tags left out.
UniProt Q59KY8: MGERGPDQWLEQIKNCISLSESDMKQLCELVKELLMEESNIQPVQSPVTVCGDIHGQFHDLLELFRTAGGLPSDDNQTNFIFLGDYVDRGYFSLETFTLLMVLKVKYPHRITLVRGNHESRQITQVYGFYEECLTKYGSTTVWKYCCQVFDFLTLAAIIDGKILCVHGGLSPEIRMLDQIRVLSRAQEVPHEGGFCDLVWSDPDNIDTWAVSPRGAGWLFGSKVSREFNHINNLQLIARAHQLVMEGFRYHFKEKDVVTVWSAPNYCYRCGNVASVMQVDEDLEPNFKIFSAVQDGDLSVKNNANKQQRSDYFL

No constants are given. Whether binding was seen depends on the method and setting. Binding seen in cells or lysates may run through a third protein. Some results given as binding are weak or reduced against the parent protein; the word gives no strength.

Experiment [1] has as its target CaSap155 (orf19.642) tagged with GFP at the C-terminus (Sap155-GFP) (C. albicans) (UniProt Q59QN2). Briefly: co-IP; anti-GFP conjugated beads used for pull-down from log-phase C. albicans yeast cell lysates; pull-down products probed with anti-GFP or anti-Flag in Western blot; repeated 3 times.
Experiment [2] addresses CaSap190 (orf19.5160) tagged with GFP at the C-terminus (Sap190-GFP) (C. albicans). The experiment is described as above.

In the case of “CaSit4 tagged with Flag at the C-terminus (Sit4-Flag) (from UniProt Q59KY8 1-314) (enzyme)”, the binding entry in experiment [1] and in experiment [2] was “binds” throughout.

With “CaSap155 (orf19.642) tagged with Flag at the C-terminus (Sap155-Flag) (from UniProt Q59QN2 1-924)”, the binding entry in experiment [2] is on record as “no binding”.
